Laboratory results: paper PMC3431373
Positions count from the first letter of the chain named. No constants are given. Whether binding was seen depends on the method and setting. Binding seen in cells or lysates may run through a third protein. Some entries that bind do so weakly or less than the wild type. Blank lines part the entries; values can stand above or below the binder they belong to.

Biological target: T1, Full-length HNF4α overexpressed in MIN6 cells (human) (UniProt P41235)
T1 sequence: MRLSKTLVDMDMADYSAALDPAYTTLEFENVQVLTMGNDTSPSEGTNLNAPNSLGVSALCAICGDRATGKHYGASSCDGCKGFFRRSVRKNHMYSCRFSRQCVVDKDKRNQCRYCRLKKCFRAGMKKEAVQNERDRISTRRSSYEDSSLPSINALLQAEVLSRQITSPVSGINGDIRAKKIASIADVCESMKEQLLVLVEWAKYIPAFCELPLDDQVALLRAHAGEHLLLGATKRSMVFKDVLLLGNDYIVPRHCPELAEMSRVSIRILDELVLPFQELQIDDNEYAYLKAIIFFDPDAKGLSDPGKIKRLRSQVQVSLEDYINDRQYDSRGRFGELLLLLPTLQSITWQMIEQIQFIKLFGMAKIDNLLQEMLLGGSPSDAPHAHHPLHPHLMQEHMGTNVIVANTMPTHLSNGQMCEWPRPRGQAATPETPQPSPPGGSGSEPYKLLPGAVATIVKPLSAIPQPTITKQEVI
Experiment: co-IP; MIN6 cells transfected with HNF4α and MED25 (or MED25 NR); lysates in 50 mM Tris pH 7.4, 150 mM NaCl, 1 mM EDTA, 0.5% NP-40, 5% glycerol; immunoprecipitation with HNF4α antibody or control IgG, Western blot with MED25 antibody

binding: binds
B1: Full-length MED25 overexpressed in MIN6 cells (protein, UniProt Q71SY5 1-747)
chain: MVPGSEGPARAGSVVADVVFVIEGTANLGPYFEGLRKHYLLPAIEYFNGGPPAETDFGGDYGGTQYSLVVFNTVDCAPESYVQCHAPTSSAYEFVTWLDGIKFMGGGGESCSLIAEGLSTALQLFDDFKKMREQIGQTHRVCLLICNSPPYLLPAVESTTYSGCTTENLVQQIGERGIHFSIVSPRKLPALRLLFEKAAPPALLEPLQPPTDVSQDPRHMVLVRGLVLPVGGGSAPGPLQSKQPVPLPPAAPSGATLSAAPQQPLPPVPPQYQVPGNLSAAQVAAQNAVEAAKNQKAGLGPRFSPITPLQQAAPGVGPPFSQAPAPQLPPGPPGAPKPPPASQPSLVSTVAPGSGLAPTAQPGAPSMAGTVAPGGVSGPSPAQLGAPALGGQQSVSNKLLAWSGVLEWQEKPKPASVDANTKLTRSLPCQVYVNHGENLKTEQWPQKLIMQLIPQQLLTTLGPLFRNSRMVQFHFTNKDLESLKGLYRIMGNGFAGCVHFPHTAPCEVRVLMLLYSSKKKIFMGLIPYDQSGFVNGIRQVITNHKQVQQQKLEQQQRGMGGQQAPPGLGPILEDQARPSQNLLQLRPPQPQPQGTVGASGATGQPQPQGTAQPPPGAPQGPPGAASGPPPPGPILRPQNPGANPQLRSLLLNPPPPQTGVPPPQASLHHLQPPGAPALLPPPHQGLGQPQLGPPLLHPPPAQSWPAQLPPRAPLPGQMLLSGGPRGPVPQPGLQPSVMEDDILMDLI

binding: binds weakly
B2: MED25 NR (LXXLL mutant) overexpressed in MIN6 cells (protein, UniProt Q71SY5 1-747)
chain: B1 chain with L649A, L650A
